Data on 1 molecule can be found in US20260055206A1 (GENSUN BIOPHARMA, published 2026).

By UniProt entry, the sequences of proteins in these tests, tags left out. Residues count along the entry.
UniProt Q9NYJ7, residues 27-618: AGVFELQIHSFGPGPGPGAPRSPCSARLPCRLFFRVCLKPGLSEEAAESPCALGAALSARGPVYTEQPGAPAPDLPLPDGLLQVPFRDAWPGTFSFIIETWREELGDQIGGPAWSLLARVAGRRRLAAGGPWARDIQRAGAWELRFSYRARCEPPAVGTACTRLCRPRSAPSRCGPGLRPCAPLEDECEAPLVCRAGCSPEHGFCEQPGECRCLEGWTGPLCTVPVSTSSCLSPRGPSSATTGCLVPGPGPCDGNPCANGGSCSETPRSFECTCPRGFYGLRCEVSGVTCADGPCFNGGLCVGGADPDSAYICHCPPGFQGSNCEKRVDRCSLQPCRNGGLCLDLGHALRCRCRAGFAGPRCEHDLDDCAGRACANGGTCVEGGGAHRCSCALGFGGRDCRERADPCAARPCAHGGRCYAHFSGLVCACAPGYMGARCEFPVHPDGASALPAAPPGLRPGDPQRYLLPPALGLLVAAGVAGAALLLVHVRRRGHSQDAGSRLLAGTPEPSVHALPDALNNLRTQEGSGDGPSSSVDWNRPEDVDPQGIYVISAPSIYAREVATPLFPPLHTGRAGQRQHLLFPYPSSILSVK

No constants are given. Whether binding was seen depends on the method and setting. Some entries that bind do so weakly or less than the wild type.

The experiment addresses human DLL3 (over-expressed on CHO-K1 cells) (human) (UniProt Q9NYJ7). The experiment is described as follows: flow cytometry (iQue) on CHO-K1 cells over-expressing human DLL3, PE anti-human IgG Fc secondary. (In general: In flow cytometry, cells or beads pass a laser one at a time.)

B1: DLL3.2 (humanized anti-DLL3 antibody) (antibody, V domains shown)
VH: QVQLVQSGAEVKKPGASVKVSCKATDYIFSNYYIEWVRQAPGQGLEWMGEILPGTGNTVYNEKFKDRVTMTVDTSTSTVYMELSSLRSEDTAVYYCARWGDYALFANWGQGTLVTVSS
VL: DIQMTQSPSTLSASVGDRVTITCKASQNVGTNVAWYQQKPGKAPKALIYSASYRYSGVPSRFSGSGSGTEFTLTISSLQPDDFATYYCQQYNSYPFTFGQGTKLEIK
Take B1: the binding result is reported as “binds”.
